Laboratory results from US7759313B2, “Induction method for cell differentiation” (Obschetstvo S Ogranichennoi Otvetstvennostiyu …, priority 2002, dated 2010).
Some entries share one result that the patent states for a list of compounds.

Test system: human M-5 melanoma cells
Assay: Initial rate of cell proliferation (IRCP), M-5 cells
Assay type: cell-based
Conditions: M-5 melanoma and B-16 melanoma cells, summary
Procedure: The study was conducted on two continuous cell cultures growing in the form of a monolayer in a tissue culture (on murine B-16 melanoma cells and human M-5 melanoma cells). […] Dicarbamine (D) was transferred into stock solution (1.000 μM), sterilized through filters with 0.22 μm pore diameter and then diluted to concentrations 0.01 and 1.0 μM.
The effect of preparations on cells was assessed on the basis of initial rate of cell proliferation (IRCP). This index (IRCP), which is usually called colony rate growth, was determined by numbering the number of cells in micro colonies during the first days following affection in “test” (with preparations) and “control” (without preparations) dishes, by analyzing 50 colonies in each of them. Each “point” included […] three Petri dishes with growing cell colonies in adding specific concentrations of preparations under study. Growth rate of colonies (in %) was calculated according to the formula: […]
Cell numbers in micro colonies were calculated for every “point”. Toxicity of preparations in the selected range of concentrations was judged by cell survival, which was determined by the ratio between numbers of the colonies grown in “test” and “control” dishes.

O=C(O)CCCC(=O)NCCc1c[nH]cn1 [Dicarbamine]
level of growth inhibition: 40.0-50.0%
